# Test results from patent US20150183743A1, “COMPOUND AND USE OF COMPOUND TO PREPARE A RADIOLABELLED COMPOUND” (STICHTING VU-VUMC, priority 2012, published 2015).
# The chains behind the UniProt entries cited, without tags or fusion partners.
# UniProt P41595, whole entry: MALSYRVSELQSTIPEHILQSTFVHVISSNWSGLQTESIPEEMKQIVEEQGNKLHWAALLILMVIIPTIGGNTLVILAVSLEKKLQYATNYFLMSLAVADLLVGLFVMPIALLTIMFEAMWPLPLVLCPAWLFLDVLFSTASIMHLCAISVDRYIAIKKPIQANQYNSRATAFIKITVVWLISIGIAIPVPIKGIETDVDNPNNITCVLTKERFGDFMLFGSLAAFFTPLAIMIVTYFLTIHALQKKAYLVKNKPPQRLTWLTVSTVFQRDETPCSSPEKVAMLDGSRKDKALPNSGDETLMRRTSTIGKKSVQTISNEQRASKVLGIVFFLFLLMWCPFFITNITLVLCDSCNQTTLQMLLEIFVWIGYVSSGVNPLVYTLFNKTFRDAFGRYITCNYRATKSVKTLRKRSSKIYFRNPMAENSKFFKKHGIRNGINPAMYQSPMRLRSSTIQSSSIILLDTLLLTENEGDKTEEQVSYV
# At least one compound was matched to its structure with a doubt left.
# Molecular target: T1, 5-HT2B (h) (agonist radioligand) (Homo sapiens, UniProt P41595)
# T1 construct: CEREP (France), contract screening
# Assay: CEREP dose-response binding, 5-HT2B
structure (smiles),measurement,value
"COc1cc(F)ccc1-c1cncc(CNC2CCCC2)c1.Cl.Cl [Example 1, N-((5-(4-fluoro-2-methoxyphenyl)pyridin-3-yl)methyl)cyclopentanamine dihydrochloride]",nH,0.8
